Literature values, collected in patent publication US7432253B2, “Phosphoepoxides, method for making same and uses” (Institut National de la Sante et de la Recherche Medicale, priority 1998, dated 2008).
Some entries share one result that the patent states for a list of compounds.

Tested on: human Tγ9δ2 lymphocytes
Conditions: prior art prenyl pyrophosphates, best results obtained; cited from earlier work

Substance: dimethylallyl-UTP
- minimum concentration at which activity could be demonstrated: ≥ 0.3 µM
